No constants are given. Whether binding was seen depends on the method and setting.
Target: plakophilin-3 (residues 305-797) (human) (UniProt Q9Y446)
Assay: condition: only with reducing agent (1 mM dithiothreitol in the column buffer); SEC-MALS; Superdex 200 10/300 GL, 20 mM Tris pH 7.5, 150 mM NaCl, 1 mM dithiothreitol; both purified

B1: plakophilin-3 (residues 305-797) (domain or fragment, human, UniProt Q9Y446 305-797, looked up)
chain: SHRTLQRLSSGFDDIDLPSAVKYLMASDPNLQVLGAAYIQHKCYSDAAAKKQARSLQAVPRLVKLFNHANQEVQRHATGAMRNLIYDNADNKLALVEENGIFELLRTLREQDDELRKNVTGILWNLSSSDHLKDRLARDTLEQLTDLVLSPLSGAGGPPLIQQNASEAEIFYNATGFLRNLSSASQATRQKMRECHGLVDALVTSINHALDAGKCEDKSVENAVCVLRNLSYRLYDEMPPSALQRLEGRGRRDLAGAPPGEVVGCFTPQSRRLRELPLAADALTFAEVSKDPKGLEWLWSPQIVGLYNRLLQRCELNRHTTEAAAGALQNITAGDRRWAGVLSRLALEQERILNPLLDRVRTADHHQLRSLTGLIRNLSRNARNKDEMSTKVVSHLIEKLPGSVGEKSPPAEVLVNIIAVLNNLVVASPIAARDLLYFDGLRKLIFIKKKRDSPDSEKSSRAASSLLANLWQYNKLHRDFRAKGYRKEDFLGP
notes: pET28 construct with eight histidines followed by an HRV-3C site at the amino terminus; no cleavage step is described; The protein is found as monomer and as homodimer; also called armadillo repeat motif domain of plakophilin-3; Pkp3; source: E. coli BL21(DE3) Rosetta2, purified (Ni-nitriloacetic acid column, Superdex S-200 size exclusion)
binding: no binding

From article PMC10253835, “Plakophilin-3 Binds the Membrane and Filamentous Actin without Bundling F-Actin” (International Journal of Molecular Sciences, 2023)
